PubChem BioAssay AID1259254 | NCATS, 2017
Test: 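Gene knock-downs that lead to re-replication, shown by excess G2 DNA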 (primary screen). System: human HCT116 colorectal cancer cells. Reagent: single siRNA against human genes. Duration: 3 days. Measured: 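Imaged Hoechst DNA stain sorts each cell into a cycle phase by DNA amount; per plate, G2 fraction set to 0% for non-targeting and 100% for GMNN siRNA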. Scale: G2 robust z-score and G2 cells, % of GMNN control: higher = more G2 cells, more excess DNA replication. Active means: 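An siRNA counts as active if its G2 robust z-score lies at least 5 MADs above the screen median; here such calls match roughly 38% of GMNN control or more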.
In all, the deposit lists about 59,000 reagents; this is a random part of them. Over the whole deposit, about 1,550 (2.6%) got an active call. 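G2 share is only a proxy for re-replication; each gene was hit by three separate siRNAs, and active genes were retested.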 A number with no mark means an inactive call. The numbers tell different reagents against one gene apart. Not all columns of the deposit are shown. Not given: the amount of reagent.

Target gene | reagent | G2 robust z-score | G2 cells, % of GMNN control
OR4E2 | 1 | 0.441 | 6.07
OR4E2 | 2 | 1.03 | 10.2
OR4E2 | 3 | -0.744 | -2.27
DYNAP | 1 | 1.79 | 15.5
DYNAP | 2 | 3.31 | 26.2
DYNAP | 3 | -0.309 | 0.794
MRPS21 | 1 | 0.714 | 7.99
MRPS21 | 2 | 3.23 | 25.7
MRPS21 | 3 | -0.016 | 2.85
FOXB2 | 1 | -0.786 | -2.56
FOXB2 | 2 | 1.85 | 16
FOXB2 | 3 | -0.5 | -0.549
TM4SF20 | 1 | 0.952 | 9.67
TM4SF20 | 2 | -0.679 | -1.81
TM4SF20 | 3 | 1.63 | 14.4
DZANK1 | 1 | -0.258 | 1.15
DZANK1 | 2 | -0.798 | -2.65
DZANK1 | 3 | -0.783 | -2.54
YTHDC2 | 1 | 0.545 | 6.8
YTHDC2 | 2 | -0.379 | 0.299
YTHDC2 | 3 | -0.364 | 0.407
OR5AK2 | 1 | -0.405 | 0.114
OR5AK2 | 2 | -0.78 | -2.52
OR5AK2 | 3 | 0.496 | 6.45
GTPBP3 | 1 | -0.907 | -3.41
GTPBP3 | 2 | -0.947 | -3.69
GTPBP3 | 3 | -0.611 | -1.33
PIK3CG | 1 | 5.43 (active) | 41.2
PIK3CG | 2 | -1.43 | -7.09
PIK3CG | 3 | 0.0805 | 3.53

Ordered by “G2 robust z-score” (ascending): 4 of the entries above.
Target gene | reagent | G2 robust z-score | G2 cells, % of GMNN control
DZANK1 | 3 | -0.783 | -2.54
YTHDC2 | 2 | -0.379 | 0.299
YTHDC2 | 3 | -0.364 | 0.407
YTHDC2 | 1 | 0.545 | 6.8
